Percent effect of library compounds

Data taken from ChEMBL document CHEMBL3988442, “University of Dundee, Small-Polar-MMV Screening Library” (2021).

Mtb glucose medium: 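Phenotypic screen: M. tuberculosis growth, glucose 7H9 medium, 3 days; the read-out is not stated. Concentration: 50 µM. Direction is inferred from retests: higher values go with more growth inhibition. Of about 69,000 compounds tested this way, about 760 (1.1%) reached 50% or more in at least one test.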
Mtb cholesterol medium: 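Whole-cell growth test on Mycobacterium tuberculosis, read after 4 days in a medium based on cholesterol and the lipid DPPC; the read-out is not stated. Compounds at 50 µM. The record gives no direction; compounds that gave an IC50 in retests scored well above the rest, so higher reads as more growth inhibition. Size under these conditions: about 69,000 compounds, about 370 of them at 50% or above in at least one test.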

Each number is a percent effect as filed. The controls that fix the scale are not given in the record; negative values are as filed. The compounds are a random part of those screened. Two or more numbers in one place are separate tests of the same structure; such repeats can differ widely.

* COc1ccc(Oc2ncccc2NC(=O)N2CCOCC2)cc1 | Mtb glucose medium: -5.816%; Mtb cholesterol medium: -4.342%
* N#Cc1cccc(N2CCCC3(CN(C(=O)c4ccc[nH]4)CCO3)C2)c1 (centres undefined) | Mtb glucose medium: -9.472% & 2.095%; Mtb cholesterol medium: -4.833%
* Fc1cccc(CN2CCC3(CCN3c3ncccn3)C2)c1.O=C(O)C(F)(F)F (centres undefined) | Mtb glucose medium: 28.83%; Mtb cholesterol medium: 14.6%
* COCC[C@]1(O)CCN(Cc2ccccn2)C[C@H]1C | Mtb glucose medium: -38.77%; Mtb cholesterol medium: -23.98%
* Cc1nc(CN2CCCC(N(C)CCCc3ccccc3)C2)no1 (centres undefined) | Mtb glucose medium: -25.5% & -7.434%; Mtb cholesterol medium: -8.827%
* CN(CC(=O)NCC(C)(C)c1ccc2c(c1)OCO2)c1cnccn1 | Mtb glucose medium: -0.3269% & -8.006%; Mtb cholesterol medium: 3.302%
* Cc1ccc(C(=O)N(C)C)cc1NC(=O)COCC1CC1 | Mtb glucose medium: 24.32%; Mtb cholesterol medium: -1.025%
* CCn1nc(C(=O)N2CCCC2c2noc(C)n2)ccc1=O (centres undefined) | Mtb glucose medium: 8.917% & -19.88%; Mtb cholesterol medium: -11.58%
* NS(=O)(=O)CCCNC(=O)C1(c2cccc(Cl)c2)CC1 | Mtb glucose medium: 5.194% & 4.342%; Mtb cholesterol medium: 21.39%
* COCc1nc(C(=O)N2CCCC2c2ccncc2)cs1 (centres undefined) | Mtb glucose medium: -3.258%; Mtb cholesterol medium: -28.26%
* O=C(Nc1cccc(N2CCN(CC3CC3)CC2)c1)N1CCCC1 | Mtb glucose medium: 20.48%; Mtb cholesterol medium: 3.63%
* CCNC(=O)N1CC[C@@H](CC(=O)O)[C@@H](CC2=NCCc3ccccc32)C1 | Mtb glucose medium: -5.54% & -15.56%; Mtb cholesterol medium: 11.33%
* CSCC(=O)N[C@H]1CN(Cc2c(C)noc2C)C[C@@H]1C(C)C | Mtb glucose medium: -11.79%; Mtb cholesterol medium: -16.07%
* CC(=O)N1CCN(c2ccnc3c(F)cc(Br)cc23)CC1 | Mtb glucose medium: 4.542%; Mtb cholesterol medium: 2.556%
* CC(C)NC(=O)[C@@H]1C[C@H](N)CN1C(=O)c1cc2c([nH]c1=O)CCCC2 | Mtb glucose medium: -9.997% & -21.46%; Mtb cholesterol medium: -7.658%
* N#CCCN(Cc1cccnc1)C(=O)c1cc(Cl)c[nH]1 | Mtb glucose medium: 31.12%; Mtb cholesterol medium: -5.962%
* CN1CC(=O)N(c2cccnc2)Cc2c(NC3CC3)ncnc21 | Mtb glucose medium: 10.22%; Mtb cholesterol medium: -8.545%
* CN1CCC(n2nc(Cc3cccc(Cl)c3)nc2Cn2ccnc2)CC1 | Mtb glucose medium: -4.22%; Mtb cholesterol medium: -11.32%
* Cc1cc(CNC(C)Cn2cncn2)ccc1Br (centres undefined) | Mtb glucose medium: -10.44%; Mtb cholesterol medium: 4.843%
* O=C(O)C(F)(F)F.[H][C@@]12CCN(C(=O)C(C)C)CC[C@]1(C(=O)N1CCCC1)CCN2C | Mtb glucose medium: 3.244%; Mtb cholesterol medium: -1.513%
* OCc1cc2ccccc2nc1NCC1CCN(CC(F)(F)F)C1 (centres undefined) | Mtb glucose medium: 9.203%; Mtb cholesterol medium: -13.51%
* CC(C)(C)n1cc(C2=CCN(CCN3CCCCCC3)CC2)cn1 | Mtb glucose medium: -4.916%; Mtb cholesterol medium: -10.99%
* CCC(CN1CCOCC1)n1cncc1-c1ccc2c(c1)CCCN2C.Cl (centres undefined) | Mtb glucose medium: 18.3%; Mtb cholesterol medium: 6.768%
* COc1nn(C)c2c1CCCN(C(=O)COc1ccccc1)C2 | Mtb glucose medium: 0.7822%; Mtb cholesterol medium: 1.982%
* CNc1oc(-c2cc(S(=O)(=O)N3CCCCCC3)c(C)o2)nc1C#N | Mtb glucose medium: 7.659%; Mtb cholesterol medium: 8.719%
* CS(=O)(=O)Cc1ccc(CNc2ncc(C#N)cc2Cl)cc1 | Mtb glucose medium: -20.18%; Mtb cholesterol medium: -21.66%
* Cc1cc(C[C@@H]2COC[C@H]2NCc2ccc(C(C)C)cc2)on1.O=C(O)CC(O)(CC(=O)O)C(=O)O | Mtb glucose medium: 49.64%; Mtb cholesterol medium: 48.35%

Some entries from above, unchanged:

{"compound": "COCC[C@]1(O)CCN(Cc2ccccn2)C[C@H]1C", "Mtb glucose medium": -38.77, "Mtb cholesterol medium": -23.98}
{"compound": "O=C(O)C(F)(F)F.[H][C@@]12CCN(C(=O)C(C)C)CC[C@]1(C(=O)N1CCCC1)CCN2C", "Mtb glucose medium": 3.244, "Mtb cholesterol medium": -1.513}
{"compound": "CN(CC(=O)NCC(C)(C)c1ccc2c(c1)OCO2)c1cnccn1", "Mtb glucose medium": "-0.3269 & -8.006", "Mtb cholesterol medium": 3.302}